In experiment [1] the target is Cubilin (wild type) (human) (UniProt O60494). Put plainly: co-IP; protein extracts of co-transfected HEK293T cells incubated with anti-HA (or IgG) for 24 h, then Protein A/G magnetic beads for 24 h; blot for AMN.
Experiment [2] shares this target. Put plainly: proximity ligation; Duolink PLA on fixed co-transfected HEK293T cells with primary antibodies against HA and AMN.

Chains of the proteins cited; added tags and fusions are not shown. Residues count along the entry.
UniProt O60494, residues 36-3623: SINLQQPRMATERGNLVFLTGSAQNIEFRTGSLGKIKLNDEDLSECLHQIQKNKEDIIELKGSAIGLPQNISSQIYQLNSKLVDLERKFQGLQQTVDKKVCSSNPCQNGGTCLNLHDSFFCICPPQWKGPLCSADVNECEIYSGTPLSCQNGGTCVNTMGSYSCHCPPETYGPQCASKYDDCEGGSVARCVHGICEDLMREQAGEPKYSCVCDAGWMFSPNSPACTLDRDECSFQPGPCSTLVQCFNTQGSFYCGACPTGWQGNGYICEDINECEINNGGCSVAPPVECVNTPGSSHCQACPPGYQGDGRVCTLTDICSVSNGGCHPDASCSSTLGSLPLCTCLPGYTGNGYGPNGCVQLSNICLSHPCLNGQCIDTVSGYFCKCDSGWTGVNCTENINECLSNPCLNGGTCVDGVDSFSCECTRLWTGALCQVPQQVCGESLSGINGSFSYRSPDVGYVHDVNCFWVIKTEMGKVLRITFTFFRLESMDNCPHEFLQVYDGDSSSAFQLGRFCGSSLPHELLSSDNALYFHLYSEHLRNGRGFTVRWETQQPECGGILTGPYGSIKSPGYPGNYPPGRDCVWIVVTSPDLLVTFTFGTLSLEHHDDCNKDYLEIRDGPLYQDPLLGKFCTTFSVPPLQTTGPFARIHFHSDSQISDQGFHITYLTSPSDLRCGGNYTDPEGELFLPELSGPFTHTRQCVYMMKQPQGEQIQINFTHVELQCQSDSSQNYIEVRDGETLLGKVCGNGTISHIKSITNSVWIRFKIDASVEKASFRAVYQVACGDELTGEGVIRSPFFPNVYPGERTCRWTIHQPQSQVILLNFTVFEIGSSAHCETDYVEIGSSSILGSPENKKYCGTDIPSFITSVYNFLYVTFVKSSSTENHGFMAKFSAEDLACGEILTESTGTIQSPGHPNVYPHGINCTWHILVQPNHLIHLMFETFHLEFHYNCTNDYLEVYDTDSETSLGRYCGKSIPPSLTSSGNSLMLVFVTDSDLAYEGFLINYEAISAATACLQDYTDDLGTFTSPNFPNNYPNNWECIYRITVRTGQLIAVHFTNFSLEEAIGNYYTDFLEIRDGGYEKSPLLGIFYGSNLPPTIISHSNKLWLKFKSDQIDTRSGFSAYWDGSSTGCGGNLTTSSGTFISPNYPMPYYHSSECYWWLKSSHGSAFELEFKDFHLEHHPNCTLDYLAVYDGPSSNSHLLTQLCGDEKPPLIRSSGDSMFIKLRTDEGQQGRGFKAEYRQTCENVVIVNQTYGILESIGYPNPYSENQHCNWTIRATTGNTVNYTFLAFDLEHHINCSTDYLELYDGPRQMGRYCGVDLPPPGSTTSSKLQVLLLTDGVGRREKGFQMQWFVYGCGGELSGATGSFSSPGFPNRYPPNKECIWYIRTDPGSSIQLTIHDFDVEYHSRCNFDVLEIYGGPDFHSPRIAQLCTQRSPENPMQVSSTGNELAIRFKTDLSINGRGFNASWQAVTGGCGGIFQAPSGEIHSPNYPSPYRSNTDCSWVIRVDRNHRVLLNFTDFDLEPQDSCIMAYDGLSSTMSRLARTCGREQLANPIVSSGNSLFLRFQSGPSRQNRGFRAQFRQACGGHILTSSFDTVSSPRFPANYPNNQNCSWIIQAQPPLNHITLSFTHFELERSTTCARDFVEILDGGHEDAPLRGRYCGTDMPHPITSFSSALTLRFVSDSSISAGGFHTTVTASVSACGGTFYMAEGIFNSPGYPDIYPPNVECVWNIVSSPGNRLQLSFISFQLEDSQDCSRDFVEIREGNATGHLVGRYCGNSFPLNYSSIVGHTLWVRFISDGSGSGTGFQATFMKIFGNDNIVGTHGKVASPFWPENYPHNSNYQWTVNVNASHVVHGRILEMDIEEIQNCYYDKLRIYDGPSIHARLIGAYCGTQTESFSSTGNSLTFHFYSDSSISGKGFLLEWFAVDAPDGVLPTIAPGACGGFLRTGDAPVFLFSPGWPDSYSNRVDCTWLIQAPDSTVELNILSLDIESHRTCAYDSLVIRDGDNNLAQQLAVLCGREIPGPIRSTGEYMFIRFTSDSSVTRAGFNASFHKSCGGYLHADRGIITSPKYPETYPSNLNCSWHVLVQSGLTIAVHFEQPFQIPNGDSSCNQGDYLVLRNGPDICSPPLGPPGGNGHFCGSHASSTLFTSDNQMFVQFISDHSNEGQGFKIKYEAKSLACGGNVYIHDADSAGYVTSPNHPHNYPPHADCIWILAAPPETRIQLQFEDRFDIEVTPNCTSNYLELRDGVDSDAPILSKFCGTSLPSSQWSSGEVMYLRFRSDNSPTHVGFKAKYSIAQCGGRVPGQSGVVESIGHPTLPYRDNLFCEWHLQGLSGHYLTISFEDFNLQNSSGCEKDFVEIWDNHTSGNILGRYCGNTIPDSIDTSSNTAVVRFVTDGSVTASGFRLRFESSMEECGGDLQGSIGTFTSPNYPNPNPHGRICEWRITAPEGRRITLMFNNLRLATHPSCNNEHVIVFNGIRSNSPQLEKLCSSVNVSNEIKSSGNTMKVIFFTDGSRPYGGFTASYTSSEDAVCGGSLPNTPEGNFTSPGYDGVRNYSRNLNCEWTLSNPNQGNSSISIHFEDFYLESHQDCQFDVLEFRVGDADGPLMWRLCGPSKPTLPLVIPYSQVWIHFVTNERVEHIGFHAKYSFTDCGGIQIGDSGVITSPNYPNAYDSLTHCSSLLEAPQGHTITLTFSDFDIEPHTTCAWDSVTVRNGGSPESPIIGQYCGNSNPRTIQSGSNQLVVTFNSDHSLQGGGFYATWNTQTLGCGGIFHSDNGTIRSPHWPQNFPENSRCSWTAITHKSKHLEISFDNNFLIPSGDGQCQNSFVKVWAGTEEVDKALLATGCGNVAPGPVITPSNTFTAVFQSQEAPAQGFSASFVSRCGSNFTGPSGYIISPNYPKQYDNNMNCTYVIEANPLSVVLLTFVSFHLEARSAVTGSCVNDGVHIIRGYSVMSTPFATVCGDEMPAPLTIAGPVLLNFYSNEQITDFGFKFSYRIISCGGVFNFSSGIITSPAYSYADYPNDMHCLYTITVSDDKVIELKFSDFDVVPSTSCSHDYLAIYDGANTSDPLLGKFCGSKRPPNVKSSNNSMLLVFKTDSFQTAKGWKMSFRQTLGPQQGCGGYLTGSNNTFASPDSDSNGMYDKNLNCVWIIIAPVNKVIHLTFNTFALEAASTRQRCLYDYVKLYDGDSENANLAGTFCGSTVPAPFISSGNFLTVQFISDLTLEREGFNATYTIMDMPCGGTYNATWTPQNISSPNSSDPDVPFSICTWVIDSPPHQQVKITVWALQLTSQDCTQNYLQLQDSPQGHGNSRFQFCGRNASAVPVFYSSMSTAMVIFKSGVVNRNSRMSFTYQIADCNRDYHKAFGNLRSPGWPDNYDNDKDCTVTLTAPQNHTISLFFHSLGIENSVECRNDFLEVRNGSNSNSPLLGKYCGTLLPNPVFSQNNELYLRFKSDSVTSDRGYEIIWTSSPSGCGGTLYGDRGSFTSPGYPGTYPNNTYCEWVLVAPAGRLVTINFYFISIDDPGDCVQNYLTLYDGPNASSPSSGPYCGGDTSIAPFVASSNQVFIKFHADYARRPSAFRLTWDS

Results are given in words; binding and its absence hold for the method and conditions named. Binding seen in cells or lysates may run through a third protein. Some binding calls cover weakened binding; strength is not graded here.

B1: Amnionless (protein, UniProt Q9BXJ7 20-453)
chain: VSKLWVPNTDFDVAANWSQNRTPCAGGAVEFPADKMVSVLVQEGHAVSDMLLPLDGELVLASGAGFGVSDVGSHLDCGAGEPAVFRDSDRFSWHDPHLWRSGDEAPGLFFVDAERVPCRHDDVFFPPSASFRVGLGPGASPVRVRSISALGRTFTRDEDLAVFLASRAGRLRFHGPGALSVGPEDCADPSGCVCGNAEAQPWICAALLQPLGGRCPQAACHSALRPQGQCCDLCGAVVLLTHGPAFDLERYRARILDTFLGLPQYHGLQVAVSKVPRSSRLREADTEIQVVLVENGPETGGAGRLARALLADVAENGEALGVLEATMRESGAHVWGSSAAGLAGGVAAAVLLALLVLLVAPPLLRRAGRLRWRRHEAAAPAGAPLGFRNPVFDVTASEELPLPRRLSLVPKAAADSTSHSYFVNPLFAGAEAEA
For the molecule B1, the binding result in experiment [1] and in experiment [2] was “binds” in each case.

Values taken from PMC9583559.
